These are yes or no findings as the source states them, for the method shown. Binding seen in cells or lysates may run through a third protein. These calls come from enrichment with a bait or labelling near it, and not all partners need be listed.
Each molecule was assayed against IFT140 wildtype (human) (UniProt Q96RY7) (assay: affinity purification with mass spectrometry).

The chains behind the UniProt entries cited, without tags or fusion partners.
UniProt Q96RY7: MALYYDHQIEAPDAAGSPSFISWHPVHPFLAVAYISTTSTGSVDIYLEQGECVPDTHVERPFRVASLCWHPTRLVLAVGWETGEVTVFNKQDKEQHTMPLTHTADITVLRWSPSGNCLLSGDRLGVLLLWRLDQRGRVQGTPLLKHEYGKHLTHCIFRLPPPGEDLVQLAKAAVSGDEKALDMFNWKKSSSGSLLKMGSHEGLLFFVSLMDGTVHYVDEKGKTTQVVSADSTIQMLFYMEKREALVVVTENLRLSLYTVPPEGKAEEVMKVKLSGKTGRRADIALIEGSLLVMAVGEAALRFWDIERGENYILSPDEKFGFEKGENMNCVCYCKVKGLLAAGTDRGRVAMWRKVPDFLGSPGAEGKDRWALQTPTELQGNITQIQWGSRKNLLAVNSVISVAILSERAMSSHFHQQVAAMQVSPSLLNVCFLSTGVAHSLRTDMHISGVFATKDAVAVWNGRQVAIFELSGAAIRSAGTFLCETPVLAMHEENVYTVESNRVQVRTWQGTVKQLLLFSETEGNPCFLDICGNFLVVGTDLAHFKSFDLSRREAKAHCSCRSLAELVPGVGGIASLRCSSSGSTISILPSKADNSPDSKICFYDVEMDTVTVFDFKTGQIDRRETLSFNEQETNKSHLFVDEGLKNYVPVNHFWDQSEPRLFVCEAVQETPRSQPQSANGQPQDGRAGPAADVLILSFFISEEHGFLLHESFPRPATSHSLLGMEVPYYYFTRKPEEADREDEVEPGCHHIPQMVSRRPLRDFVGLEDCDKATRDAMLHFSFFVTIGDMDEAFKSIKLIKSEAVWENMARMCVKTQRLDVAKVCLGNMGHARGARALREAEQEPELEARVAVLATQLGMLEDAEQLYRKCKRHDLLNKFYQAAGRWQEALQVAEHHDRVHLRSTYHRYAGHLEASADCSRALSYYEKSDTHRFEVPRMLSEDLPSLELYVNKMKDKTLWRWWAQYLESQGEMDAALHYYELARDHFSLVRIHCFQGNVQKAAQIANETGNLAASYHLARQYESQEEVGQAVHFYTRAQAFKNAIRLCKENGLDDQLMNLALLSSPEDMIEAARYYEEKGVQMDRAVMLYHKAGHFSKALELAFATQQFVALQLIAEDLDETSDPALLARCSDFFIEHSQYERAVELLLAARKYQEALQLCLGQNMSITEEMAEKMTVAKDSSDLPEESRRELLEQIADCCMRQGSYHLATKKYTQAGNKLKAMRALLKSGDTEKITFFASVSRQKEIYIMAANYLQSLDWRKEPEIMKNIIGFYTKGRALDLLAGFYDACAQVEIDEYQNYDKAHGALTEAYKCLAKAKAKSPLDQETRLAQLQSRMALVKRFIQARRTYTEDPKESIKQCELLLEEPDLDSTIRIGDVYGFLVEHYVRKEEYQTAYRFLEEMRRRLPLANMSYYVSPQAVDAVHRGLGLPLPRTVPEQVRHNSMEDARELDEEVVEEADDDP
UniProt Q15149: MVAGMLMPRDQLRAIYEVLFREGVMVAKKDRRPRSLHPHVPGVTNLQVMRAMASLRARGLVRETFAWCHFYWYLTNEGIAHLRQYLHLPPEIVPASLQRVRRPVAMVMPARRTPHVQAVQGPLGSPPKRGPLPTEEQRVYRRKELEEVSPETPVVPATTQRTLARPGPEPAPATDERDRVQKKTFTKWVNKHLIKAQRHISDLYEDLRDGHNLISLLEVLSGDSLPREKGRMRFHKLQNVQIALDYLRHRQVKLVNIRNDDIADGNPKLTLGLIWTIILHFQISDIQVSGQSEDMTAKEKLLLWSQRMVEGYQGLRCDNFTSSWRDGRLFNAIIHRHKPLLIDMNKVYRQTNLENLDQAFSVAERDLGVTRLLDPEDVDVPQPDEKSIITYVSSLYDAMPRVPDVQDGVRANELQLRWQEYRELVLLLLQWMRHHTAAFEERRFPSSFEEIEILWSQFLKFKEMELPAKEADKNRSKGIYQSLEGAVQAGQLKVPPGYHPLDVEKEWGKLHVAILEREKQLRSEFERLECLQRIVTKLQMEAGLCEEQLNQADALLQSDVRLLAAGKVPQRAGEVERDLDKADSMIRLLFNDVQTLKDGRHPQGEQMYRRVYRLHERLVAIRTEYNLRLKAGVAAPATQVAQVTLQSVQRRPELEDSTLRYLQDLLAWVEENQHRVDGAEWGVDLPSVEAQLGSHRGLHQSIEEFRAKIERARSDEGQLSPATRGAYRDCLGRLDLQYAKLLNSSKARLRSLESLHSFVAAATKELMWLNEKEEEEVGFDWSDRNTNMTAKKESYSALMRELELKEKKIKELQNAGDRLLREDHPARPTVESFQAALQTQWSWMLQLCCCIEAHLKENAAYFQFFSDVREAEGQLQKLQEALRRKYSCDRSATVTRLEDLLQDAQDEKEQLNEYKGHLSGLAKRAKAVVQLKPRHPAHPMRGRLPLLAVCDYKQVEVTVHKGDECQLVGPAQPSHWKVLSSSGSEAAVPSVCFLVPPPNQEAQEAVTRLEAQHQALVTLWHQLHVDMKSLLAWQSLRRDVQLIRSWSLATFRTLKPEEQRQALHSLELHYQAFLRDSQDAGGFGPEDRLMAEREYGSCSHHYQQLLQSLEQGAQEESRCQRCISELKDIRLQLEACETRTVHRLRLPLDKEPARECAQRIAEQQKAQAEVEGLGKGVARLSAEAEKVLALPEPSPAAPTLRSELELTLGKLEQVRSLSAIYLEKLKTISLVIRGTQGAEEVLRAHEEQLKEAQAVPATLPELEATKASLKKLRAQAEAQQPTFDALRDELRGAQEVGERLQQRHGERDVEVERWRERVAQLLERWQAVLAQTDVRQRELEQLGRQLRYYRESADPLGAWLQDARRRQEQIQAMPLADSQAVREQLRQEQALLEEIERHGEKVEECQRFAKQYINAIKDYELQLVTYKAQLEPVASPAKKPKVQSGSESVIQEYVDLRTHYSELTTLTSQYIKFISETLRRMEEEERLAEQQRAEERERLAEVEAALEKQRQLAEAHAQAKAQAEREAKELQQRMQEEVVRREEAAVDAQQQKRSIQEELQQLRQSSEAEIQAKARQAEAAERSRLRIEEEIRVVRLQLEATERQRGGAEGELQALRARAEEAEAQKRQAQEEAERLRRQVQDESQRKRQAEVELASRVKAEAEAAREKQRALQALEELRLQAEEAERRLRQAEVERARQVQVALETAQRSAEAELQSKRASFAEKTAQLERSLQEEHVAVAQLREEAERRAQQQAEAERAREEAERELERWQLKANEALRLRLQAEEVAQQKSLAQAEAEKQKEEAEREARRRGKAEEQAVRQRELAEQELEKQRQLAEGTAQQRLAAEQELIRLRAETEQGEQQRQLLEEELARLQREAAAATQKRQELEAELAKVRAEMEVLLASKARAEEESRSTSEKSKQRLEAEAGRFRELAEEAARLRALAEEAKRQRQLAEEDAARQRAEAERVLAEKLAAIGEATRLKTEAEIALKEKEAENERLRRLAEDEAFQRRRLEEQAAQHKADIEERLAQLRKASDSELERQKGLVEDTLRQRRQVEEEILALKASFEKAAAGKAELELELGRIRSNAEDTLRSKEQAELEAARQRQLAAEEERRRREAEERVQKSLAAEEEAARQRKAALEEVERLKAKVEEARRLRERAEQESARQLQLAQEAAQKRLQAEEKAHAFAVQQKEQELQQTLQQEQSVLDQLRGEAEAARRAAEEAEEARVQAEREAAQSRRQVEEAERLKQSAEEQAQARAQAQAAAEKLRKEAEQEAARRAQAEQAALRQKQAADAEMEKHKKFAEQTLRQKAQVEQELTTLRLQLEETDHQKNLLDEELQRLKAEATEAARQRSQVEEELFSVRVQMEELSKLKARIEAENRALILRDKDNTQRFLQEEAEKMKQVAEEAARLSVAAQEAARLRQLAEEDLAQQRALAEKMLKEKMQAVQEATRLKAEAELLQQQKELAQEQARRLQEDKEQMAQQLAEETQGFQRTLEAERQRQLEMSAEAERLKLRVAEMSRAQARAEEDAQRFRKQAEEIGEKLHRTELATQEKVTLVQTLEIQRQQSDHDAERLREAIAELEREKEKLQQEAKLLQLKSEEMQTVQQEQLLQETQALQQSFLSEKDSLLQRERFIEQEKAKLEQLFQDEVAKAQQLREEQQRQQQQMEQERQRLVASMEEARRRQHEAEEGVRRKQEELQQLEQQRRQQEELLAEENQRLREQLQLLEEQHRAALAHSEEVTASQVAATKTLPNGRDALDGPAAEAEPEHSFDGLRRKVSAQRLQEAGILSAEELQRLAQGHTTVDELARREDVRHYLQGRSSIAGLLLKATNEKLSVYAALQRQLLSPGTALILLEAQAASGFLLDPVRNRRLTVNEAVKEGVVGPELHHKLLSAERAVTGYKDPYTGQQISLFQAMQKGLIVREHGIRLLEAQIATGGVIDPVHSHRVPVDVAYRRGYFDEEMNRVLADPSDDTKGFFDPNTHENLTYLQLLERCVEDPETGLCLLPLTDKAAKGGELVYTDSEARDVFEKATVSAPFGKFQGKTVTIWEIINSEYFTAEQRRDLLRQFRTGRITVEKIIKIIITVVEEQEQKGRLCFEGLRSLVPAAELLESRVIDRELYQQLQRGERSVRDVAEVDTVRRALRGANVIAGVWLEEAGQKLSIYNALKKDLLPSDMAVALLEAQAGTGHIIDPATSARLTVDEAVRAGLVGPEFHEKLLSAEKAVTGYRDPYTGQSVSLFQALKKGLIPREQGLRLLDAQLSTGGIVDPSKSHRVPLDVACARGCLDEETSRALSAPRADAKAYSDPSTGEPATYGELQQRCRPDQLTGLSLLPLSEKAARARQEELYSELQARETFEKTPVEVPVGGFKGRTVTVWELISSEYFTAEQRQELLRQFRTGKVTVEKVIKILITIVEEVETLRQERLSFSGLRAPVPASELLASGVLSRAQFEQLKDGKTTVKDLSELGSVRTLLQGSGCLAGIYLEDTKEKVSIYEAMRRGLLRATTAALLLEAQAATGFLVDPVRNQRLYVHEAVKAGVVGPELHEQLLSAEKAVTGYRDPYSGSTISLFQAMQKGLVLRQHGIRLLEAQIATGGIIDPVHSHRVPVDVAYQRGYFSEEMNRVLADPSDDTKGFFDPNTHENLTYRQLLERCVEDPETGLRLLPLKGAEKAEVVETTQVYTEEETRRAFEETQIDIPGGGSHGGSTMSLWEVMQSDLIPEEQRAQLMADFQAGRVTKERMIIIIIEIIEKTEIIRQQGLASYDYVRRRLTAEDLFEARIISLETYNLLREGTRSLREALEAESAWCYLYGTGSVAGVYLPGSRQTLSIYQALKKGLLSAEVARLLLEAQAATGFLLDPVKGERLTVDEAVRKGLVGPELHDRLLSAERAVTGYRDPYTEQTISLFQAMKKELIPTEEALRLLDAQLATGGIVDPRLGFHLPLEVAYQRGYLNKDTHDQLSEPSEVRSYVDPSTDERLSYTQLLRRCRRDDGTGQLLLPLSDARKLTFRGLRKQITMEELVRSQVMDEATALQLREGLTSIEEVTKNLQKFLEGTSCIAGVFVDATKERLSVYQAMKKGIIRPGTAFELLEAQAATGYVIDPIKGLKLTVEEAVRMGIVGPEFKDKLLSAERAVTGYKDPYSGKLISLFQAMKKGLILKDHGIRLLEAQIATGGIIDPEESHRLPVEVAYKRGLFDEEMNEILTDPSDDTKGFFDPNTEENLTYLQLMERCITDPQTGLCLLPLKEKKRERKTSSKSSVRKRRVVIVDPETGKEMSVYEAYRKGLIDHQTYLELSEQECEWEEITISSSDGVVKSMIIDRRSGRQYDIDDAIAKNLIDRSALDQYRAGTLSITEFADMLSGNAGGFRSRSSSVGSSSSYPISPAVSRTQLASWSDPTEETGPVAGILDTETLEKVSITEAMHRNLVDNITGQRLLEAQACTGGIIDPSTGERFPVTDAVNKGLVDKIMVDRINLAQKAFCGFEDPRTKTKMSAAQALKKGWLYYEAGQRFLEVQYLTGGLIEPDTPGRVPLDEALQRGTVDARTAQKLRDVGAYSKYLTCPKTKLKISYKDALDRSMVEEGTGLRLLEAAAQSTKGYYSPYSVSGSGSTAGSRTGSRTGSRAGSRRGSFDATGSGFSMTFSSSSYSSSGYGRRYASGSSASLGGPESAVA
UniProt Q9Y266: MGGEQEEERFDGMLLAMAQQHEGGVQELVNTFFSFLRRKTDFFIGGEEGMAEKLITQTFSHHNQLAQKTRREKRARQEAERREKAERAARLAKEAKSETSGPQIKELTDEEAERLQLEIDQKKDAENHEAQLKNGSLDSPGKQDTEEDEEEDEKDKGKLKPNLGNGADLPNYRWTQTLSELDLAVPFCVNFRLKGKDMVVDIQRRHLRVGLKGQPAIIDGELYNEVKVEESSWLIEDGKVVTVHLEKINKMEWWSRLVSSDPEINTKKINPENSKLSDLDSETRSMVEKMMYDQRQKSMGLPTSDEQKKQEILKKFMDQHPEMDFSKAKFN

| binding | Molecule |
| --- | --- |
| binds | SPAG7 (protein, UniProt O75391 1-227) MADLLGSILSSMEKPPSLGDQETRRKAREQAARLKKLQEQEKQQKVEFRKRMEKEVSDFIQDSGQIKKKFQPMNKIERSILHDVVEVAGLTSFSFGEDDDCRYVMIFKKEFAPSDEELDSYRRGEEWDPQKAEEKRKLKELAQRQEEEAAQQGPVVVSPASDYKDKYSHLIGKGAAKDAAHMLQANKTYGCVPVANKRDTRSIEEAMNEIRAKKRLRQSGEELPPTS |
| binds | TULP3 (endogenous) (protein, UniProt O75386 1-442) MEASRCRLSPSGDSVFHEEMMKMRQAKLDYQRLLLEKRQRKKRLEPFMVQPNPEARLRRAKPRASDEQTPLVNCHTPHSNVILHGIDGPAAVLKPDEVHAPSVSSSVVEEDAENTVDTASKPGLQERLQKHDISESVNFDEETDGISQSACLERPNSASSQNSTDTGTSGSATAAQPADNLLGDIDDLEDFVYSPAPQGVTVRCRIIRDKRGMDRGLFPTYYMYLEKEENQKIFLLAARKRKKSKTANYLISIDPVDLSREGESYVGKLRSNLMGTKFTVYDRGICPMKGRGLVGAAHTRQELAAISYETNVLGFKGPRKMSVIIPGMTLNHKQIPYQPQNNHDSLLSRWQNRTMENLVELHNKAPVWNSDTQSYVLNFRGRVTQASVKNFQIVHKNDPDYIVMQFGRVADDVFTLDYNYPLCAVQAFGIGLSSFDSKLACE |
| binds | STX8 (protein, UniProt Q9UNK0 1-236) MAPDPWFSTYDSTCQIAQEIAEKIQQRNQYERKGEKAPKLTVTIRALLQNLKEKIALLKDLLLRAVSTHQITQLEGDRRQNLLDDLVTRERLLLASFKNEGAEPDLIRSSLMSEEAKRGAPNPWLFEEPEETRGLGFDEIRQQQQKIIQEQDAGLDALSSIISRQKQMGQEIGNELDEQNEIIDDLANLVENTDEKLRNETRRVNMVDRKSASCGMIMVILLLLVAIVVVAVWPTN |
| binds | SYNJ2 (protein, UniProt O15056 1-1496) MALSKGLRLLGRLGAEGDCSVLLEARGRDDCLLFEAGTVATLAPEEKEVIKGQYGKLTDAYGCLGELRLKSGGTSLSFLVLVTGCTSVGRIPDAEIYKITATDFYPLQEEAKEEERLIALKKILSSGVFYFSWPNDGSRFDLTVRTQKQGDDSSEWGNSFFWNQLLHVPLRQHQVSCCDWLLKIICGVVTIRTVYASHKQAKACLVSRVSCERTGTRFHTRGVNDDGHVSNFVETEQMIYMDDGVSSFVQIRGSVPLFWEQPGLQVGSHHLRLHRGLEANAPAFDRHMVLLKEQYGQQVVVNLLGSRGGEEVLNRAFKKLLWASCHAGDTPMINFDFHQFAKGGKLEKLETLLRPQLKLHWEDFDVFTKGENVSPRFQKGTLRMNCLDCLDRTNTVQSFIALEVLHLQLKTLGLSSKPIVDRFVESFKAMWSLNGHSLSKVFTGSRALEGKAKVGKLKDGARSMSRTIQSNFFDGVKQEAIKLLLVGDVYGEEVADKGGMLLDSTALLVTPRILKAMTERQSEFTNFKRIRIAMGTWNVNGGKQFRSNVLRTAELTDWLLDSPQLSGATDSQDDSSPADIFAVGFEEMVELSAGNIVNASTTNKKMWGEQLQKAISRSHRYILLTSAQLVGVCLYIFVRPYHVPFIRDVAIDTVKTGMGGKAGNKGAVGIRFQFHSTSFCFICSHLTAGQSQVKERNEDYKEITQKLCFPMGRNVFSHDYVFWCGDFNYRIDLTYEEVFYFVKRQDWKKLLEFDQLQLQKSSGKIFKDFHEGAINFGPTYKYDVGSAAYDTSDKCRTPAWTDRVLWWRKKHPFDKTAGELNLLDSDLDVDTKVRHTWSPGALQYYGRAELQASDHRPVLAIVEVEVQEVDVGARERVFQEVSSFQGPLDATVVVNLQSPTLEEKNEFPEDLRTELMQTLGSYGTIVLVRINQGQMLVTFADSHSALSVLDVDGMKVKGRAVKIRPKTKDWLKGLREEIIRKRDSMAPVSPTANSCLLEENFDFTSLDYESEGDILEDDEDYLVDEFNQPGVSDSELGGDDLSDVPGPTALAPPSKSPALTKKKQHPTYKDDADLVELKRELEAVGEFRHRSPSRSLSVPNRPRPPQPPQRPPPPTGLMVKKSASDASISSGTHGQYSILQTARLLPGAPQQPPKARTGISKPYNVKQIKTTNAQEAEAAIRCLLEARGGASEEALSAVAPRDLEASSEPEPTPGAAKPETPQAPPLLPRRPPPRVPAIKKPTLRRTGKPLSPEEQFEQQTVHFTIGPPETSVEAPPVVTAPRVPPVPKPRTFQPGKAAERPSHRKPASDEAPPGAGASVPPPLEAPPLVPKVPPRRKKSAPAAFHLQVLQSNSQLLQGLTYNSSDSPSGHPPAAGTVFPQGDFLSTSSATSPDSDGTKAMKPEAAPLLGDYQDPFWNLLHHPKLLNNTWLSKSSDPLDSGTRSPKRDPIDPVSAGASAAKAELPPDHEHKTLGHWVTISDQEKRTALQVFDPLAKT |

More lines, now with the values behind:

| Molecule | binding |
| --- | --- |
| IFT121 (protein, UniProt Q9P2L0 1-1181) MFFYLSKKISIPNNVKLQCVSWNKEQGFIACGGEDGLLKVLKLETQTDDAKLRGLAAPSNLSMNQTLEGHSGSVQVVTWNEQYQKLTTSDENGLIIVWMLYKGSWIEEMINNRNKSVVRSMSWNADGQKICIVYEDGAVIVGSVDGNRIWGKDLKGIQLSHVTWSADSKVLLFGMANGEIHIYDNQGNFMIKMKLSCLVNVTGAISIAGIHWYHGTEGYVEPDCPCLAVCFDNGRCQIMRHENDQNPVLIDTGMYVVGIQWNHMGSVLAVAGFQKAAMQDKDVNIVQFYTPFGEHLGTLKVPGKEISALSWEGGGLKIALAVDSFIYFANIRPNYKWGYCSNTVVYAYTRPDRPEYCVVFWDTKNNEKYVKYVKGLISITTCGDFCILATKADENHPQEENEMETFGATFVLVLCNSIGTPLDPKYIDIVPLFVAMTKTHVIAASKEAFYTWQYRVAKKLTALEINQITRSRKEGRERIYHVDDTPSGSMDGVLDYSKTIQGTRDPICAITASDKILIVGRESGTIQRYSLPNVGLIQKYSLNCRAYQLSLNCNSSRLAIIDISGVLTFFDLDARVTDSTGQQVVGELLKLERRDVWDMKWAKDNPDLFAMMEKTRMYVFRNLDPEEPIQTSGYICNFEDLEIKSVLLDEILKDPEHPNKDYLINFEIRSLRDSRALIEKVGIKDASQFIEDNPHPRLWRLLAEAALQKLDLYTAEQAFVRCKDYQGIKFVKRLGKLLSESMKQAEVVGYFGRFEEAERTYLEMDRRDLAIGLRLKLGDWFRVLQLLKTGSGDADDSLLEQANNAIGDYFADRQKWLNAVQYYVQGRNQERLAECYYMLEDYEGLENLAISLPENHKLLPEIAQMFVRVGMCEQAVTAFLKCSQPKAAVDTCVHLNQWNKAVELAKNHSMKEIGSLLARYASHLLEKNKTLDAIELYRKANYFFDAAKLMFKIADEEAKKGSKPLRVKKLYVLSALLIEQYHEQMKNAQRGKVKGKSSEATSALAGLLEEEVLSTTDRFTDNAWRGAEAYHFFILAQRQLYEGCVDTALKTALHLKDYEDIIPPVEIYSLLALCACASRAFGTCSKAFIKLKSLETLSSEQKQQYEDLALEIFTKHTSKDNRKPELDSLMEGGEGKLPTCVATGSPITEYQFWMCSVCKHGVLAQEISHYSFCPLCHSPVG | binds |
| SMG9 (protein, UniProt Q9H0W8 1-520) MSESGHSQPGLYGIERRRRWKEPGSGGPQNLSGPGGRERDYIAPWERERRDASEETSTSVMQKTPIILSKPPAERSKQPPPPTAPAAPPAPAPLEKPIVLMKPREEGKGPVAVTGASTPEGTAPPPPAAPAPPKGEKEGQRPTQPVYQIQNRGMGTAAPAAMDPVVGQAKLLPPERMKHSIKLVDDQMNWCDSAIEYLLDQTDVLVVGVLGLQGTGKSMVMSLLSANTPEEDQRTYVFRAQSAEMKERGGNQTSGIDFFITQERIVFLDTQPILSPSILDHLINNDRKLPPEYNLPHTYVEMQSLQIAAFLFTVCHVVIVVQDWFTDLSLYRFLQTAEMVKPSTPSPSHESSSSSGSDEGTEYYPHLVFLQNKARREDFCPRKLRQMHLMIDQLMAHSHLRYKGTLSMLQCNVFPGLPPDFLDSEVNLFLVPFMDSEAESENPPRAGPGSSPLFSLLPGYRGHPSFQSLVSKLRSQVMSMARPQLSHTILTEKNWFHYAARIWDGVRKSSALAEYSRLLA | binds |
| IFT43 (protein, UniProt Q96FT9 1-208) MEDLLDLDEELRYSLATSRAKMGRRAQQESAQAENHLNGKNSSLTLTGETSSAKLPRCRQGGWAGDSVKASKFRRKASEEIEDFRLRPQSLNGSDYGGDIPIIPDLEEVQEEDFVLQVAAPPSIQIKRVMTYRDLDNDLMKYSAIQTLDGEIDLKLLTKVLAPEHEVREDDVGWDWDHLFTEVSSEVLTEWDPLQTEKEDPAGQARHT | binds |

Molecular target: IFT140 wildtype (human) (UniProt Q96RY7)
Assay: affinity purification with mass spectrometry
Remark: another data set of the same source

| binding | Molecule |
| --- | --- |
| binds | PLEC (from UniProt Q15149 1-4684) |
| binds | NUDC (from UniProt Q9Y266 1-331) |
| binds | POLA1 (from UniProt P09884 1-1462) |

Reference: article doi:10.1101/2023.01.18.523235
